Results published in paper PMC6165360.

Target: T1, C-reactive protein (CRP) (human) (UniProt P02741)
T1 sequence (looked up, limits assumed): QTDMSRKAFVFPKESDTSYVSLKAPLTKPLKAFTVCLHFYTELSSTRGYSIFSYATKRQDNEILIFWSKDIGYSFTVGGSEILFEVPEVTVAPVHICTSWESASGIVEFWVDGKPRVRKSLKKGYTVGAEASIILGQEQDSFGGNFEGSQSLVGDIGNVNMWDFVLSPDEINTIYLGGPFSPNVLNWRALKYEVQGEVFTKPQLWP
Test: etched fiber Bragg grating optical biosensor, Langmuir-Freundlich fit
Conditions: 1 mM Mg2+, 1 mM Ca2+, 3'-C6-SH thiol, 140 mM NaCl, 5 mM KCl, 1 mM MgCl2, 1 mM CaCl2, 50 wt% glycerol, 20 mM Tris, pH 7.4, 10 min incubation, temperature not stated, aptamer immobilized on fiber, commercial protein, folded or branched DNA

Work on “CCCCCGCGGGTCGGCTTGCCGTTCCGTTCGGCGCTTCCCCTTTTTTTTT [CRP-40-17-3'SH]” yielded a Ka (1.8 mg/mL ascorbic acid and 1.8 mg/mL urea, beta 0.486 +/- 0.030, N=8) of 888000 nM⁻¹, a Ka (diluted CRP-deficient human plasma, beta 0.816 +/- 0.105, N=3) of 768000 nM⁻¹ and a Ka (no interfering substances, beta 0.355 +/- 0.022, N=5) of 348000 nM⁻¹.

Where a protein sequence is shown, tags need not be part of it.
